# Results published in the supplement of paper PMC12819154, “High-throughput peptide-centric local stability assay extends protein–ligand identification to membrane proteins, tissues and bacteria” (Nature Structural & Molecular Biology, 2025).
# The chains behind the UniProt entries cited, without tags or fusion partners. Where a name states a change or a piece, a line headed by the entry shows the natural chain unless it says otherwise.
# UniProt Q9C0C4, whole entry: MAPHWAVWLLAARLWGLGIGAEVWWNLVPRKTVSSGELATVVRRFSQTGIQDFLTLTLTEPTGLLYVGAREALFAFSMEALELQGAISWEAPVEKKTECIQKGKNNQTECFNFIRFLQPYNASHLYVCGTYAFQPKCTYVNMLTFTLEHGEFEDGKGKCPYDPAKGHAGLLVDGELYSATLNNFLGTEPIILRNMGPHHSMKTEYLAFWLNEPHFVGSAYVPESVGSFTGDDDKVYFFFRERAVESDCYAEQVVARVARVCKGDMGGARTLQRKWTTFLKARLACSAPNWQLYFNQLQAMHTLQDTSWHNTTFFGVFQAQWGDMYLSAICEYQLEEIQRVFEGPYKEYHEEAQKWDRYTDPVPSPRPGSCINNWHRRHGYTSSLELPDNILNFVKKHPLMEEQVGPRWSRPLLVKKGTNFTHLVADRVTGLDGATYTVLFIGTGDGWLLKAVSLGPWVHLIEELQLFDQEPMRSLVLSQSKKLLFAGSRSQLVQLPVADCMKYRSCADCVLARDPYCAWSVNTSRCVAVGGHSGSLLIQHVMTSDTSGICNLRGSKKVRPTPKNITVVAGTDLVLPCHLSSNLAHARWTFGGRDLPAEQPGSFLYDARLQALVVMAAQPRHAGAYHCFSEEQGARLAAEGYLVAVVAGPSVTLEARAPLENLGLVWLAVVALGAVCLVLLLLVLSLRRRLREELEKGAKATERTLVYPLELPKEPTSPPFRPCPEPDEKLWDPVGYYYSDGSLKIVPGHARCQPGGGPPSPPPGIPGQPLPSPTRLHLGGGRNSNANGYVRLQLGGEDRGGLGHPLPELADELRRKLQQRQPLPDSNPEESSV
# UniProt Q9H0B6: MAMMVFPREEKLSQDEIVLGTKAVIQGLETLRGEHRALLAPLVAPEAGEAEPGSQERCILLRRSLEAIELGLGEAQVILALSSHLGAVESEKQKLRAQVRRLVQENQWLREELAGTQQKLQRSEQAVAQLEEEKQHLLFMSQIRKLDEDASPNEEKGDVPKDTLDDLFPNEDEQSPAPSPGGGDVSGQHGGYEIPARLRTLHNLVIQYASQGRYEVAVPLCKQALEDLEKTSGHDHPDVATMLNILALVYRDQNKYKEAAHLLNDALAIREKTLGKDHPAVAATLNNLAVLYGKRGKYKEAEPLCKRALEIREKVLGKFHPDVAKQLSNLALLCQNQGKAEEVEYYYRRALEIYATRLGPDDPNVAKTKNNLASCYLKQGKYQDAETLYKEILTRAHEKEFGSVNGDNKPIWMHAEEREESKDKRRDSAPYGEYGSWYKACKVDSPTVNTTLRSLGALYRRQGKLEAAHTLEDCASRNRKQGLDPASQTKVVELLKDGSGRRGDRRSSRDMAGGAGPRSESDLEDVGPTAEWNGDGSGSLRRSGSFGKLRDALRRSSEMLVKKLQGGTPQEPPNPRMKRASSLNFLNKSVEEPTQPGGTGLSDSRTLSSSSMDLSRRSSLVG
# UniProt Q9C0C9: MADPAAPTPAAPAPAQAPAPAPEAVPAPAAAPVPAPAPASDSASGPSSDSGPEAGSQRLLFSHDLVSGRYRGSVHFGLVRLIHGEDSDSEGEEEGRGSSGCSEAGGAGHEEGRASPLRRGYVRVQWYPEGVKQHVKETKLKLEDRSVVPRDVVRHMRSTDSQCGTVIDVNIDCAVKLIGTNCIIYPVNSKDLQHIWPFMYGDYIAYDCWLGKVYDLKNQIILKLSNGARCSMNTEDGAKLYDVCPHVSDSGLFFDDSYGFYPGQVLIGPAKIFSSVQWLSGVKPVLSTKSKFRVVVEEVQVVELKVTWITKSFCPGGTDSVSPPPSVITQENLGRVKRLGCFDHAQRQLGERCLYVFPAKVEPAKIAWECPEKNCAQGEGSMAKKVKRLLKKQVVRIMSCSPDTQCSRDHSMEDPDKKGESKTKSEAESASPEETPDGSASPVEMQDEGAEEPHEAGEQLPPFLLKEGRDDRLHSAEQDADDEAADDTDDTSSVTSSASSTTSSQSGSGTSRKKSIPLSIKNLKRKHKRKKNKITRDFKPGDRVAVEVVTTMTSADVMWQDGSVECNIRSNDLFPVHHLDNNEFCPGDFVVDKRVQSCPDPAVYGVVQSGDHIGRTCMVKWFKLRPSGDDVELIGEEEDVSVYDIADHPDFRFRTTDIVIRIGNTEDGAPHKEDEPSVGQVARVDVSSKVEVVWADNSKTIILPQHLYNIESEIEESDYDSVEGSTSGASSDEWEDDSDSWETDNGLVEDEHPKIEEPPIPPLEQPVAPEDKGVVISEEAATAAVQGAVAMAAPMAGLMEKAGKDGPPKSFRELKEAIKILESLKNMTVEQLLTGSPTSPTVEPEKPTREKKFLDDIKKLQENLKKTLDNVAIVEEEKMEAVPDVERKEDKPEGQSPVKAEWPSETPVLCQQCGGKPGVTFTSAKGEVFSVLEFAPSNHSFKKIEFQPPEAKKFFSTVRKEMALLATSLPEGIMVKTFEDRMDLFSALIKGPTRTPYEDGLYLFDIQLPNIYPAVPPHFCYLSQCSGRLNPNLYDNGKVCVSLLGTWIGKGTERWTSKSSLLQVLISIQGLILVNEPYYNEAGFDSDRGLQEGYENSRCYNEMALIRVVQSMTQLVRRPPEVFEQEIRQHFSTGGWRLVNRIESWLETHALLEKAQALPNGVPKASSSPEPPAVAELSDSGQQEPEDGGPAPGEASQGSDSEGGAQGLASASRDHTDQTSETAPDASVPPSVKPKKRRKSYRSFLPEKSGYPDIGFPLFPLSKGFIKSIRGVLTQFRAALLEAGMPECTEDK
# UniProt Q9BUV8: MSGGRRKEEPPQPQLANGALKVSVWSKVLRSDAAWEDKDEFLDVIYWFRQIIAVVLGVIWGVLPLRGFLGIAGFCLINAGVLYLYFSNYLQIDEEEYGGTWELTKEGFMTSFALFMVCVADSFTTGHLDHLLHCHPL
# UniProt Q9BW04: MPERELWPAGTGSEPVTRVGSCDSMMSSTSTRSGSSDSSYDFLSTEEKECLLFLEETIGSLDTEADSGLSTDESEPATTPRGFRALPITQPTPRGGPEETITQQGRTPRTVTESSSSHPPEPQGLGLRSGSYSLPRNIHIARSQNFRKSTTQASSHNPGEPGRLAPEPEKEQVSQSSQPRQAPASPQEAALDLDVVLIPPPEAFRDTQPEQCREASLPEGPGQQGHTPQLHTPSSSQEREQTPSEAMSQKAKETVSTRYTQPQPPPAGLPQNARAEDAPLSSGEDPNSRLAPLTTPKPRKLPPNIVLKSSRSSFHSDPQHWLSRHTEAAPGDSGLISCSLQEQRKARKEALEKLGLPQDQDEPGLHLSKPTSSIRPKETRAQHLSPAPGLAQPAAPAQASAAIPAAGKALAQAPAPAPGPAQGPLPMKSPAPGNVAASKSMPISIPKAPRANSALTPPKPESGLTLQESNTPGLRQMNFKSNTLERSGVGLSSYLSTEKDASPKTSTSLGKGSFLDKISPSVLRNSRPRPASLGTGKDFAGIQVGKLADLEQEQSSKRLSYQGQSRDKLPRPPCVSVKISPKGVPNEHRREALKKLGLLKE
# UniProt Q9BVT8: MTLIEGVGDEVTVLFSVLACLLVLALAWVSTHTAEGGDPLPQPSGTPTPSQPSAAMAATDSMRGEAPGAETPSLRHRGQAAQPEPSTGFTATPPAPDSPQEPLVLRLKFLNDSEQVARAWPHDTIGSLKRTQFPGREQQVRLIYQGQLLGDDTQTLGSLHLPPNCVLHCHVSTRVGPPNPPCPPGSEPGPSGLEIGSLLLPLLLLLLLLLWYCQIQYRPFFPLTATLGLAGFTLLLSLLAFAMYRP
# UniProt Q9BX40: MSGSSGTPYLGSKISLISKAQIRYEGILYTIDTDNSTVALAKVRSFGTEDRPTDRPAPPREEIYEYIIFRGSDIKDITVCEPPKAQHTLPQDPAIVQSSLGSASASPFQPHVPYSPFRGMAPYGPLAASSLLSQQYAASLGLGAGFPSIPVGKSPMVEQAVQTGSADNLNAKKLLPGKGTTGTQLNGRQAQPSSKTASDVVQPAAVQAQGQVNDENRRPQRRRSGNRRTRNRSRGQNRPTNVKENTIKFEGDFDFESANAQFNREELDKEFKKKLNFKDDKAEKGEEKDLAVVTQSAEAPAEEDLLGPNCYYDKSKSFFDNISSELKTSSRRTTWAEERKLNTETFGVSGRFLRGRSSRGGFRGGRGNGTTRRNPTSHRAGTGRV
# UniProt Q9C0J8: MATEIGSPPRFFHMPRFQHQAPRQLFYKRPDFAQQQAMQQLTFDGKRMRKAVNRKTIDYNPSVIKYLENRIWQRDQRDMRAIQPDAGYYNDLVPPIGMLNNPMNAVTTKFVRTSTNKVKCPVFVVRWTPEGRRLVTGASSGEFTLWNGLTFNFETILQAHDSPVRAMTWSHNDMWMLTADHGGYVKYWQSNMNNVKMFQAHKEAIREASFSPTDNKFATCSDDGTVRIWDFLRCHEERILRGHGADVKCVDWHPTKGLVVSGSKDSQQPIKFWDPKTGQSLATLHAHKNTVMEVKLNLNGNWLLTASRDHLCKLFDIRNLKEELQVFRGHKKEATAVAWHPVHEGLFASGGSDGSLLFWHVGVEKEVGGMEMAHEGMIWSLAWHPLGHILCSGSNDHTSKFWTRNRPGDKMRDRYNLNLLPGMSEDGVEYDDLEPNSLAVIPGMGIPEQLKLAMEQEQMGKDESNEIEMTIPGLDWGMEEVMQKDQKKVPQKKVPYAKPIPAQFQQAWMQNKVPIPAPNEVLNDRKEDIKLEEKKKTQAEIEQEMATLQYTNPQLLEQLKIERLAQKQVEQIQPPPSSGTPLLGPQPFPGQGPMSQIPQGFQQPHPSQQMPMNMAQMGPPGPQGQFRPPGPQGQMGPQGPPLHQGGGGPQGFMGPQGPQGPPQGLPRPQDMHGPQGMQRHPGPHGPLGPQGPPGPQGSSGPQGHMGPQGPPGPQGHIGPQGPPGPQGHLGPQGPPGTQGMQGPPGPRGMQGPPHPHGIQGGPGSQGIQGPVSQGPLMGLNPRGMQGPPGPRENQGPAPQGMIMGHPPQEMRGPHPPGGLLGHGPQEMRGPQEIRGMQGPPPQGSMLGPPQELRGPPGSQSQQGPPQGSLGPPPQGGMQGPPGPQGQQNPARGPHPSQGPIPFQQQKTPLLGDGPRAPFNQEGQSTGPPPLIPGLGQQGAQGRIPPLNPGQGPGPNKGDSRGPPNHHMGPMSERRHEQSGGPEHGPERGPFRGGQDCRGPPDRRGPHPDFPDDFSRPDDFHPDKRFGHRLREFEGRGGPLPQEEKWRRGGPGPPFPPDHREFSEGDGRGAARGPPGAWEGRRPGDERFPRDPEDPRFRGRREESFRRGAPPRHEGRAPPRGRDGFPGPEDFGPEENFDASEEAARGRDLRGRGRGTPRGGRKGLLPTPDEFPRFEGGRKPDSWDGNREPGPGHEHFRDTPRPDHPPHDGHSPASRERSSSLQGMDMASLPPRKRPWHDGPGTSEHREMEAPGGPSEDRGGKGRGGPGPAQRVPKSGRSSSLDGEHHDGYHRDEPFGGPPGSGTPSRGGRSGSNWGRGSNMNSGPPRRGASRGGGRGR
# UniProt Q9C0D3: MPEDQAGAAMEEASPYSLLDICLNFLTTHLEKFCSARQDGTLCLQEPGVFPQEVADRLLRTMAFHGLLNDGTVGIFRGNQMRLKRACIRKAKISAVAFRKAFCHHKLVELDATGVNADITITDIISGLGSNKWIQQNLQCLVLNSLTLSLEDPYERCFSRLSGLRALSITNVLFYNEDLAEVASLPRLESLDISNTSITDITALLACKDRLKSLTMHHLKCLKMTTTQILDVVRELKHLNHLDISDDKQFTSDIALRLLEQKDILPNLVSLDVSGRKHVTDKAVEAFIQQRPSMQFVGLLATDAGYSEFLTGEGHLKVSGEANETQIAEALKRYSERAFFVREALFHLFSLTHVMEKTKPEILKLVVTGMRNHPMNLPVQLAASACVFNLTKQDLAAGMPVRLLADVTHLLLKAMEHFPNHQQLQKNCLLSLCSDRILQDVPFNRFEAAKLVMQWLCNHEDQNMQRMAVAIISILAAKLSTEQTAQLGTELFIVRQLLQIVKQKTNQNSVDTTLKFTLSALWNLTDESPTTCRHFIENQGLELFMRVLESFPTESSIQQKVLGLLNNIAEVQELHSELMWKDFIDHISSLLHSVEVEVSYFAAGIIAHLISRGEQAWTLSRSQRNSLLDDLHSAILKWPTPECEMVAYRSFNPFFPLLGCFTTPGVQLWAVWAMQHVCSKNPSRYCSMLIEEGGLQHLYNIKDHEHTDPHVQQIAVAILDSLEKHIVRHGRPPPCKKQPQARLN
# UniProt Q9GZZ9, whole entry: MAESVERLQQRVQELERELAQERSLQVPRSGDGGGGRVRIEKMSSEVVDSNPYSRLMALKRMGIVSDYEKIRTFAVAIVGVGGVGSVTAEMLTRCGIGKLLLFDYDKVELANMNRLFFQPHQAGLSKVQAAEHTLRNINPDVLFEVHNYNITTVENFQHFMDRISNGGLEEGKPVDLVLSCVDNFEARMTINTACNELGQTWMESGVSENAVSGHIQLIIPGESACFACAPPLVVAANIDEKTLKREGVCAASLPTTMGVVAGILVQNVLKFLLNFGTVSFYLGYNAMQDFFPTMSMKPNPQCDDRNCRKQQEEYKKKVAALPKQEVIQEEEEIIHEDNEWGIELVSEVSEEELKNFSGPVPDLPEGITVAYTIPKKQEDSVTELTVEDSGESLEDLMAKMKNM
# The list shows a part of the results. Small differences around the control level are noise.
# Compound: Cc1nc(Nc2ncc(C(=O)Nc3c(C)cccc3Cl)s2)cc(N2CCN(CCO)CC2)n1 [dasatinib]
# Assay: log2 fold change of tryptic peptide abundance, ligand vs vehicle (limited proteolysis) (log2 ratio); higher = more trypsin-susceptible (destabilized)
# Details: ligand concentration: 5 uM; sample: K562 cleared lysate
row,Target,log2 fold change
1,"CARD6 (peptide sequence: ASWVMGRPFGSEQRPK, peptide start residue: 749) (UniProt Q9BX69)",-0.344
2,"SEMA4C (peptide sequence: NSNANGYVR, peptide start residue: 783) (UniProt Q9C0C4)",-0.422
3,"UniProt Q9C040 (peptide sequence: NGHIIVVDNK, peptide start residue: 586)",-0.472
4,"KLC2 (peptide sequence: AVIQGLETLRGEHR, peptide start residue: 23) (UniProt Q9H0B6)",-0.314
5,"UniProt Q9BY42 (peptide sequence: AAESVSKPDVSEEAPGPSKVK, peptide start residue: 204)",0.861
6,"API5 (peptide sequence: RLAAQFIPK, peptide start residue: 43) (UniProt Q9BZZ5)",0.0933
7,"UBE2O (peptide sequence: KEDKPEGQSPVK, peptide start residue: 888) (UniProt Q9C0C9)",0.376
8,"CHID1 (peptide sequence: SQFSDKPVQDR, peptide start residue: 38) (UniProt Q9BWS9)",0.488
9,"IFIH1 (peptide sequence: YLISCFR, peptide start residue: 13) (UniProt Q9BYX4)",0.111
10,"UniProt Q9BUV8 (peptide sequence: RKEEPPQPQLANGALK, peptide start residue: 6)",0.0784
11,"SSBP4 (peptide sequence: EACEHSGEAK, peptide start residue: 79) (UniProt Q9BWG4)",0.389
12,"SARG (peptide sequence: KLPPNIVLK, peptide start residue: 300) (UniProt Q9BW04)",0.479
13,"TMUB1 (peptide sequence: AWPHDTIGSLKR, peptide start residue: 119) (UniProt Q9BVT8)",-0.134
14,"LSM14B (peptide sequence: SGSSGTPYLGSK, peptide start residue: 2) (UniProt Q9BX40)",0.391
15,"WDR33 (peptide sequence: GPPNHHMGPMSER, peptide start residue: 961) (UniProt Q9C0J8)",0.103
16,"SNRNP25 (peptide sequence: TYHLTSAGEK, peptide start residue: 95) (UniProt Q9BV90)",-0.123
17,"UniProt Q9H0W8 (peptide sequence: SESGHSQPGLYGIERR, peptide start residue: 2)",-0.394
18,"ZYG11B (peptide sequence: HGRPPPCKK, peptide start residue: 729) (UniProt Q9C0D3)",0.0887
19,"TSPYL1 (peptide sequence: GHEPQSFIR, peptide start residue: 360) (UniProt Q9H0U9)",-0.201
20,"UniProt Q9BVA1 (peptide sequence: INVYYNEATGNKYVPR, peptide start residue: 47)",0.0812
21,"ADI1 (peptide sequence: MFYEEHLHLDDEIR, peptide start residue: 83) (UniProt Q9BV57)",0.681
22,"KATNB1 (peptide sequence: ASDFLPAVK, peptide start residue: 467) (UniProt Q9BVA0)",-0.111
23,"UniProt Q9H190 (peptide sequence: VDQAIQAQVR, peptide start residue: 13)",0.353
24,"UniProt Q9BVR0 (peptide sequence: DKWQPLLSTVTGVHK, peptide start residue: 1604)",0.351
25,"UniProt Q9BY27 (peptide sequence: HQEAQQACRPHNLPVVQAAQQR, peptide start residue: 100)",-0.0661
26,"UBA5 (peptide sequence: MGIVSDYEK, peptide start residue: 62) (UniProt Q9GZZ9)",-0.0614
27,"ENKD1 (peptide sequence: LLQSQSQLLR, peptide start residue: 291) (UniProt Q9H0I2)",-0.231
28,"NPL (peptide sequence: QVAEEWVTK, peptide start residue: 65) (UniProt Q9BXD5)",0.638
29,"UniProt Q9C0E8 (peptide sequence: DSSAPGGPPER, peptide start residue: 200)",-0.0632

# From no. 24 as far as 25, as listed above:
row,Target,log2 fold change
24,"UniProt Q9BVR0 (peptide sequence: DKWQPLLSTVTGVHK, peptide start residue: 1604)",0.351
25,"UniProt Q9BY27 (peptide sequence: HQEAQQACRPHNLPVVQAAQQR, peptide start residue: 100)",-0.0661
